Results from PMC4550541 (Protein Engineering, Design and Selection, 2015).
Changes are numbered by the printed parent chain. These are yes or no findings as the source states them, for the method shown. Some results given as binding are weak or reduced against the parent protein; the word gives no strength. Each block holds one binder with its values, some of them ahead of it.

Target: HER2 on SK-BR-3 cells (human (endogenous in SK-BR-3)) (UniProt P04626)
Assay: flow cytometry on cells; SK-BR-3 cells incubated with purified DARPins (1 ug/ml, 1 h, room temperature); detected with anti-His antibody and PE-conjugated secondary antibody; only the binder purified

B1: DARPin A1 (designed binder)
chain: DLGKKLLEAVRAGQGDEVRILMANGADVNAKDEYGLTPLHLATAHGHLEIVEVLLKNGADVNAADAIGFTPLHLAAFIGHLEIVEVLLKHGADVNAQDRFGKTAFDISIGNGNEDLAEILQKL
binding: binds

B2: DARPin B3 (designed binder)
chain: B1 chain with V10A, G15D, G25D, H40Q, T43A, A64M, A92V, R99K
binding: binds

B5: DARPin C3 (designed binder)
chain: B1 chain with V10A, G15D, H40Y, A44T, E49G, A64V, R99K, K102N, G110D
binding: binds

Other lines, results leading:

binding: binds
B3: DARPin C4 (designed binder)
chain: DLGKKLLGAARAGQDDEVRILMADGADVNAKDEYGLTPLQLAAAHGHLEIVEVLLKNGADVNAVDAIGFTPLHLATFIGHLEIVEVLLKHGADANAQDKFGKAAFDISIDNGNGDLAEILQKL

binding: binds
B4: DARPin F1 (designed binder)
chain: DLGKKLLEAARAGEDDEVRVLMANGADVNAKDEYGLAPLYHATAHGHLEIVEVLLKNGADVNAVDAIGFTPLHLAAFIGHLEIAEVLLRHGADVNAQDKFGKTAFDISIDNVNEDLAEILQKL
notes: source: E. coli M15 (pQE30), purified (His trap; SEC on Superdex 75 for large scale); not shown: His6, N-terminal, kept

binding: binds
B6: DARPin F3 (designed binder)
chain: B1 chain with V10A, G15D, N24I, Y34C, H40Y, A64V, R99K

binding: binds
B7: DARPin D4 (designed binder)
chain: B1 chain with V10A, G13R, G15D, A64V, R99K, G110D, G112V
